Results on 1 substance are retold here after publication doi:10.1101/743930.

Chains of the proteins cited; added tags and fusions are not shown.
UniProt O35253: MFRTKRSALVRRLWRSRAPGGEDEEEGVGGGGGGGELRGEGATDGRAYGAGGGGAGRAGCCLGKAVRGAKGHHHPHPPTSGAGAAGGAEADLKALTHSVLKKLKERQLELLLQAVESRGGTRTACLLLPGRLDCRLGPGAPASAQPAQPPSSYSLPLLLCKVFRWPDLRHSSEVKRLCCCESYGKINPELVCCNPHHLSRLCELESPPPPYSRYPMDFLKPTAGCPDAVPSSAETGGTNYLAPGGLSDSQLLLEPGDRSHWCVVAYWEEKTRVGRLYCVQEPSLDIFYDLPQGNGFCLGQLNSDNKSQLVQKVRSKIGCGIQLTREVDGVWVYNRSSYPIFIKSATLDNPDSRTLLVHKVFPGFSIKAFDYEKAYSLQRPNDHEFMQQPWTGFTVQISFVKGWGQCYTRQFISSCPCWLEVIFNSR

Results are given in words; binding and its absence hold for the method and conditions named. Binding seen in cells or lysates may run through a third protein. Some binding calls cover weakened binding; strength is not graded here.

For this experiment, the target named is Microtubule-actin cross-linking factor 1 (MACF1) (mouse (endogenous in MC3T3-E1 and in mouse MSCs)) (UniProt Q9QXZ0). The experiment can be described thus: co-IP.

SMAD7 (from UniProt O35253 1-426): the binding entry is given as “binds”.
